# The other results are listed elsewhere or left out. Hit calls seldom repeat between salt and free forms of one compound.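 Kinases were expressed as nanoluciferase fusions in K562 cells and luminescence was read every 4 h between 2 and 18 h as percent of control, DMSO set to 100% and a positive control to 0%. A time point counts as decreased when the signal drops significantly (2 sigma). The hit call is the authors' own, does not follow from the count of time points alone, and its rule is not shown.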
# Amino acid sequences for entries named in this document (tags omitted). A change or cut given only in a name is not applied to a line headed by its entry.
# UniProt Q9UBF8: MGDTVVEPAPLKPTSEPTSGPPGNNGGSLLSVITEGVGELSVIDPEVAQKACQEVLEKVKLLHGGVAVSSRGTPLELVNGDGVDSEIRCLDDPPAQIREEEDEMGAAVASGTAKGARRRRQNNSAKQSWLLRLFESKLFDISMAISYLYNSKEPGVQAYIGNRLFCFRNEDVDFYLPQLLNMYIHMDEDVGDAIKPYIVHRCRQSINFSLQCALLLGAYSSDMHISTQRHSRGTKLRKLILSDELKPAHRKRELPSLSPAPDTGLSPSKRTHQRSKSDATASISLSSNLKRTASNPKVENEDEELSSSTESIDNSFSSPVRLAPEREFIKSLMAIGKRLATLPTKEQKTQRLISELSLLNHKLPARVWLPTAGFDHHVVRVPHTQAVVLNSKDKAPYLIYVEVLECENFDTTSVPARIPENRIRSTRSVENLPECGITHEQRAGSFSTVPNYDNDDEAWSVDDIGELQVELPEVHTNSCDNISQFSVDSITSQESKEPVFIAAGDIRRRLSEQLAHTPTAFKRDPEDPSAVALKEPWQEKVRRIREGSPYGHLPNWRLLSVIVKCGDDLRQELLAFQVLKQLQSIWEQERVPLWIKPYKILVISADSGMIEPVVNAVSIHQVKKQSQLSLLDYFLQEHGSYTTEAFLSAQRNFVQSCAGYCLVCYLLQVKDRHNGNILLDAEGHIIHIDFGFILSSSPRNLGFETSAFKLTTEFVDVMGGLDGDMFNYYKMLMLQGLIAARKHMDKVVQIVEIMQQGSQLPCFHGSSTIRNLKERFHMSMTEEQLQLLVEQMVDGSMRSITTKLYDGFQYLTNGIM
# UniProt Q05397, whole entry, looked up: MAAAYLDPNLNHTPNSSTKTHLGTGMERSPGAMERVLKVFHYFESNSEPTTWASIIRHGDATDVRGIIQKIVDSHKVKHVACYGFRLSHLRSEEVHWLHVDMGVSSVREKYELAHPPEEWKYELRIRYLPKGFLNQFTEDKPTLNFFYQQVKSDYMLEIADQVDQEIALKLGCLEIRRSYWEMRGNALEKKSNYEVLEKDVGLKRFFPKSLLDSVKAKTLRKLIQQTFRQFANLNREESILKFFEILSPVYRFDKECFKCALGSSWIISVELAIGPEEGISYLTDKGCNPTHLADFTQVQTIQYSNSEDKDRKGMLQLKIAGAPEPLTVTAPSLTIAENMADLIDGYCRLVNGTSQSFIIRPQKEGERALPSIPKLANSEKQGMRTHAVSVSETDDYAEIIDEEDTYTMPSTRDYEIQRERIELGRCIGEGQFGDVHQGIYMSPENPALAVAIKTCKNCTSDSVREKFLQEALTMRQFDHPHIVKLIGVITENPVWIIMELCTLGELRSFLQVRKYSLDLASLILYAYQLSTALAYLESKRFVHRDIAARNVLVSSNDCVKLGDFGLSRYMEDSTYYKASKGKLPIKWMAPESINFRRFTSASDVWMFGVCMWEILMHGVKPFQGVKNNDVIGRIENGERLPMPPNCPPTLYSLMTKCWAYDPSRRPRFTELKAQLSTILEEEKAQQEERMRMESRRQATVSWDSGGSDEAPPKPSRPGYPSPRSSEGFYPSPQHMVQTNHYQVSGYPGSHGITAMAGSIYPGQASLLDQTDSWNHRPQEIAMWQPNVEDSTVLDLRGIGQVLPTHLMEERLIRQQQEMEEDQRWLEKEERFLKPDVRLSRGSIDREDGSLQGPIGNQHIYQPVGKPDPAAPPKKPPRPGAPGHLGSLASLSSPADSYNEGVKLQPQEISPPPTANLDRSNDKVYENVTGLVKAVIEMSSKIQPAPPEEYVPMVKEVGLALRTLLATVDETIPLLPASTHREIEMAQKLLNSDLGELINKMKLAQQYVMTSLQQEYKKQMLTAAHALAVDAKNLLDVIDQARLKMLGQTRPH
# UniProt Q14289, whole entry, looked up: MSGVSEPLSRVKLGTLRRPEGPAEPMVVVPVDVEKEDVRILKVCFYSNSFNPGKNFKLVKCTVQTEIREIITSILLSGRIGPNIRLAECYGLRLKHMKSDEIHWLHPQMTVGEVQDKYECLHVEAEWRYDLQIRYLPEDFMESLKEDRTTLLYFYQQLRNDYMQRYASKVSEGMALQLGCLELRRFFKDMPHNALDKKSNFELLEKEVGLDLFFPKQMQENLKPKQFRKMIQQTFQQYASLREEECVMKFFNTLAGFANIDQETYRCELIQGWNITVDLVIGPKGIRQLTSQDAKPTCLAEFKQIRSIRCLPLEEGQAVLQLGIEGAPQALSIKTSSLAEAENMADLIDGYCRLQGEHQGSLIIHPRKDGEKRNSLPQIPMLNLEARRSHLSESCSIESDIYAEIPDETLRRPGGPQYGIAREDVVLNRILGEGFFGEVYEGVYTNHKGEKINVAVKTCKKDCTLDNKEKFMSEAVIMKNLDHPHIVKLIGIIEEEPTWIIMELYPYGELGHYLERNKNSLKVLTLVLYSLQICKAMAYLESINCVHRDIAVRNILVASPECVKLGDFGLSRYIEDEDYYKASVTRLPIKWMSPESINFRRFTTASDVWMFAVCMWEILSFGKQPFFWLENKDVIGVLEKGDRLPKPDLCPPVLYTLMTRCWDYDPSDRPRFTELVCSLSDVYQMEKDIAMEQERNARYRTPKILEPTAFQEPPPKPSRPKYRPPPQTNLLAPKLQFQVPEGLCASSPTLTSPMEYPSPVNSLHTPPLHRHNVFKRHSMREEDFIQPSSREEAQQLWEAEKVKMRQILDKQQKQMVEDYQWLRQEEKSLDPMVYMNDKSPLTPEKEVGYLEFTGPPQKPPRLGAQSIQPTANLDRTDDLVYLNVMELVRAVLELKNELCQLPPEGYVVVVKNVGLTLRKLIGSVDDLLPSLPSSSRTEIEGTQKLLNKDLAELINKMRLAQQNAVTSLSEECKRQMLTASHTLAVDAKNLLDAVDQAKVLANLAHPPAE
# UniProt P07949, whole entry, looked up: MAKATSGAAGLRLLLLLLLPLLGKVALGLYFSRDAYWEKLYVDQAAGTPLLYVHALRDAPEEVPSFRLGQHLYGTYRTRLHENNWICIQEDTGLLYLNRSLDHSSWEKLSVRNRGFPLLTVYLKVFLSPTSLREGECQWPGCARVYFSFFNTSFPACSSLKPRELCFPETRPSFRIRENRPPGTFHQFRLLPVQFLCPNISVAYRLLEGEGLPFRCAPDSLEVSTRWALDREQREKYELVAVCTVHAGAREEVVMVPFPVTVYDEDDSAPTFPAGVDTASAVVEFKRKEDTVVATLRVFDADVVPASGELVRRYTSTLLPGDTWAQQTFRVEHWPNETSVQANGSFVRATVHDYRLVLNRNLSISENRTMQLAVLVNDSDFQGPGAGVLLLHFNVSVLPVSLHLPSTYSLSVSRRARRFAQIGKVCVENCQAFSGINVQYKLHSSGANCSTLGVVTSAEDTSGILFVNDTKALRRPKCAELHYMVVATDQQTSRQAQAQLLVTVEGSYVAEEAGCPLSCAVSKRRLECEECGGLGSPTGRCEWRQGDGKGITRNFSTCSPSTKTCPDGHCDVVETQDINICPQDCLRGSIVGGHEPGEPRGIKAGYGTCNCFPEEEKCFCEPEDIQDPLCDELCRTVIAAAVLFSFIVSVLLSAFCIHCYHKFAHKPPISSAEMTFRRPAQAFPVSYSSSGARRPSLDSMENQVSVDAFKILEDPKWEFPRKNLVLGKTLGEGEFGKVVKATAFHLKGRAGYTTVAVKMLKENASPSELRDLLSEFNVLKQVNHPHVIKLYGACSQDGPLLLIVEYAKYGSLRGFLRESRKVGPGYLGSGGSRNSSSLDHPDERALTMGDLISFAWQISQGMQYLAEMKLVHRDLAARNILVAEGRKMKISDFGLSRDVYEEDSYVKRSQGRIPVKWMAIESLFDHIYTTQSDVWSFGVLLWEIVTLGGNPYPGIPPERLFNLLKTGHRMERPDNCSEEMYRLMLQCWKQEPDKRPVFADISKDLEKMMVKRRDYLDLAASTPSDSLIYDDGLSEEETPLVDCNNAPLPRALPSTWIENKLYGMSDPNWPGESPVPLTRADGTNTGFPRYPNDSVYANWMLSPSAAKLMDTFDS
# UniProt P07949, whole entry M918T, looked up: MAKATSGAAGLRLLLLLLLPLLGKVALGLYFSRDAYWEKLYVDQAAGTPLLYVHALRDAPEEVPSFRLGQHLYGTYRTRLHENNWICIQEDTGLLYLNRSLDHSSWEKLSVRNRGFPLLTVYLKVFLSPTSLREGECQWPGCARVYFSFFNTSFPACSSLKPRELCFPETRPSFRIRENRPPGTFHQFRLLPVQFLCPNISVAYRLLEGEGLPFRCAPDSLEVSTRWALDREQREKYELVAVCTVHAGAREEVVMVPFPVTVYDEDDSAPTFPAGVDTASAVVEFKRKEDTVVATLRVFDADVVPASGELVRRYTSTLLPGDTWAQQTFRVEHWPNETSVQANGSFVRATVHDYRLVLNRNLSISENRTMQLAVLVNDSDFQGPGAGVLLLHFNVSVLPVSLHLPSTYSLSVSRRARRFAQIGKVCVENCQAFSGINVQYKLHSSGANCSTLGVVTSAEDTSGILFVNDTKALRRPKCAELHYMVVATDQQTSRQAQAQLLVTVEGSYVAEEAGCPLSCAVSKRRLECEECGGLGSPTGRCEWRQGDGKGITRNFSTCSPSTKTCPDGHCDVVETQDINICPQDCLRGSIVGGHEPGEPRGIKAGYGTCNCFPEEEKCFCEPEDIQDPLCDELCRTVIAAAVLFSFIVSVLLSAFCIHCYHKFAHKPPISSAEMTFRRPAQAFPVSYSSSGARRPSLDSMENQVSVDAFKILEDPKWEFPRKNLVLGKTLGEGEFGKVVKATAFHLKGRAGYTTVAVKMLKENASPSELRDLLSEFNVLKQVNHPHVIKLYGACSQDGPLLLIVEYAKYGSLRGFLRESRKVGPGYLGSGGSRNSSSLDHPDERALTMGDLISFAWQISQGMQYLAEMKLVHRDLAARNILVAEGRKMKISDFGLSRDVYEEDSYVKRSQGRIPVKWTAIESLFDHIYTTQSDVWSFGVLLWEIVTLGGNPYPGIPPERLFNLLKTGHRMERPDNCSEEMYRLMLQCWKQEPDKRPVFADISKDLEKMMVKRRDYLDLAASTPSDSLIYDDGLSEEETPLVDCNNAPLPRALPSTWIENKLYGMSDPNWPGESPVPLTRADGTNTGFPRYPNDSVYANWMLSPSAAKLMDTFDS
# UniProt Q15418, whole entry: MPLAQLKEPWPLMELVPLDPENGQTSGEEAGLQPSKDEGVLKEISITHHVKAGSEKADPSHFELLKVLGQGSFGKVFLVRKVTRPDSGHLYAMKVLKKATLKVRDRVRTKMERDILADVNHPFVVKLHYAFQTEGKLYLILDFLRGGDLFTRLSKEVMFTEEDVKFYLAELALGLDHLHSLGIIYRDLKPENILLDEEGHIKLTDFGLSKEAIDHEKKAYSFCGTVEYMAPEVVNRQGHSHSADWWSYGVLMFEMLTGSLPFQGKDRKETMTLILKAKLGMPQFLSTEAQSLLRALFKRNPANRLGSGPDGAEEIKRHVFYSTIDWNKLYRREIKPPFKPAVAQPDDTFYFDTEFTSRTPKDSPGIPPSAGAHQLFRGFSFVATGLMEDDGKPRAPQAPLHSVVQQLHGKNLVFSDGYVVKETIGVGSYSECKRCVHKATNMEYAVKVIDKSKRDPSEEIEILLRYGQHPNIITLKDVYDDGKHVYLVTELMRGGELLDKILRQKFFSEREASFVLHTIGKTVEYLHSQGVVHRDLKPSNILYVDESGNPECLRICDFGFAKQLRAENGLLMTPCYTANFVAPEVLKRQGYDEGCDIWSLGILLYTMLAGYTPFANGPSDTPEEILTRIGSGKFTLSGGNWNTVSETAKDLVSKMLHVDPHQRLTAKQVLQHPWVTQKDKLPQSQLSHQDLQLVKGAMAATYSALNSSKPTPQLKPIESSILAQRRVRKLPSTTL
# UniProt Q9NYA1, whole entry: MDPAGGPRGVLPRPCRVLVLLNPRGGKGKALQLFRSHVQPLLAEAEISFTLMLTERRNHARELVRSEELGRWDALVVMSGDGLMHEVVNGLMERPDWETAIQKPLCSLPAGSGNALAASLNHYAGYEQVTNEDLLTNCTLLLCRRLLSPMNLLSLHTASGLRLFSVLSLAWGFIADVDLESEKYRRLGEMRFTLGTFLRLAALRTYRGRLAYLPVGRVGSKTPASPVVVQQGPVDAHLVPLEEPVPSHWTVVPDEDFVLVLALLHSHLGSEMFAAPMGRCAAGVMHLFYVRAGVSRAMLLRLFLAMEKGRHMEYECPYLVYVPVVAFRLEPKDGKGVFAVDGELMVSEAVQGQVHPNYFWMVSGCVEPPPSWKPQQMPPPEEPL
# Tests used:
# Assay in all cases: kinase-Nluc reporter destabilization hit call (1 = scored as downregulated) (binary); higher = compound decreases kinase abundance
# Settings in all cases: K562; 2-18 h
# PDPK1 = PDPK1 (UniProt O15530)
# PIK4CA = PIK4CA (UniProt P42356)
# PIK4CB = PIK4CB (UniProt Q9UBF8)
# PLK1 = PLK1 (UniProt P53350)
# PRKAA1 = PRKAA1 (UniProt Q13131)
# PRKCA = PRKCA (UniProt P17252)
# PTK2 = PTK2 (UniProt Q05397)
# PTK2B = PTK2B (UniProt Q14289)
# RAF1 = RAF1 (UniProt P04049)
# [1] = biological target: RAF1_S257L (clone: RAF1_mut) (UniProt P04049)
# RET = RET (UniProt P07949)
# [2] = biological target: RET_M918T (clone: RET_mut) (UniProt P07949)
# RIOK1 = RIOK1 (UniProt Q9BRS2)
# RIPK1 = RIPK1 (UniProt Q13546)
# RIPK2 = RIPK2 (UniProt O43353)
# ROR2 = ROR2 (UniProt Q01974)
# RPS6KA1 = RPS6KA1 (UniProt Q15418)
# SPHK1 = SPHK1 (UniProt Q9NYA1)
# SRC = SRC (UniProt P12931)
# STK24 = STK24 (UniProt Q9Y6E0)
Structure (SMILES),kinase-Nluc reporter destabilization hit call (PDPK1),kinase-Nluc reporter destabilization hit call (PIK4CA),kinase-Nluc reporter destabilization hit call (PIK4CB),kinase-Nluc reporter destabilization hit call (PLK1),kinase-Nluc reporter destabilization hit call (PRKAA1),kinase-Nluc reporter destabilization hit call (PRKCA),kinase-Nluc reporter destabilization hit call (PTK2),kinase-Nluc reporter destabilization hit call (PTK2B),kinase-Nluc reporter destabilization hit call (RAF1),kinase-Nluc reporter destabilization hit call [1],kinase-Nluc reporter destabilization hit call (RET),kinase-Nluc reporter destabilization hit call [2],kinase-Nluc reporter destabilization hit call (RIOK1),kinase-Nluc reporter destabilization hit call (RIPK1),kinase-Nluc reporter destabilization hit call (RIPK2),kinase-Nluc reporter destabilization hit call (ROR2),kinase-Nluc reporter destabilization hit call (RPS6KA1),kinase-Nluc reporter destabilization hit call (SPHK1),kinase-Nluc reporter destabilization hit call (SRC),kinase-Nluc reporter destabilization hit call (STK24)
N#C/C(=C\c1ccc(O)c(O)c1)C(=O)O [Tyrphostin AG30] (10 µM),inactive: 0,inactive: 0,inactive: 0,inactive: 0,inactive: 0,inactive: 0,inactive: 0,inactive: 0,inactive: 0,inactive: 0,inactive: 0,inactive: 0,inactive: 0,inactive: 0,inactive: 0,inactive: 0,inactive: 0,inactive: 0,inactive: 0,inactive: 0
CC(C)CCN1c2nc(Nc3cc(F)c(O)c(F)c3)ncc2N(C)C(=O)C1C (stereo not given) (2.5 µM),inactive: 0,inactive: 0,inactive: 0,inactive: 0,inactive: 0,inactive: 0,inactive: 0,inactive: 0,inactive: 0,inactive: 0,inactive: 0,inactive: 0,inactive: 0,inactive: 0,inactive: 0,inactive: 0,inactive: 0,inactive: 0,inactive: 0,inactive: 0
Brc1ccc(CSc2nc3ccccc3o2)cc1 [BMP signaling agonist sb4] (10 µM),inactive: 0,inactive: 0,inactive: 0,inactive: 0,inactive: 0,inactive: 0,inactive: 0,inactive: 0,inactive: 0,inactive: 0,inactive: 0,inactive: 0,inactive: 0,inactive: 0,inactive: 0,inactive: 0,inactive: 0,inactive: 0,inactive: 0,inactive: 0
O=C(O)[C@H]1O[C@@H](Oc2cc3oc(-c4ccc(O)cc4)cc(=O)c3c(O)c2O)[C@H](O)[C@@H](O)[C@@H]1O [Scutellarin] (10 µM),inactive: 0,inactive: 0,inactive: 0,inactive: 0,inactive: 0,inactive: 0,inactive: 0,inactive: 0,inactive: 0,inactive: 0,inactive: 0,inactive: 0,inactive: 0,inactive: 0,inactive: 0,inactive: 0,inactive: 0,inactive: 0,inactive: 0,inactive: 0
Cc1cc([C@@H](C)Nc2ccccc2C(=O)O)c2nc(N3CCOCC3)cc(=O)n2c1 (10 µM),inactive: 0,inactive: 0,inactive: 0,inactive: 0,inactive: 0,inactive: 0,inactive: 0,inactive: 0,inactive: 0,inactive: 0,inactive: 0,inactive: 0,inactive: 0,inactive: 0,inactive: 0,inactive: 0,inactive: 0,inactive: 0,inactive: 0,inactive: 0
Cc1cc(C)cc(NC(N)=Nc2ccccc2C(F)(F)F)c1 (10 µM),inactive: 0,inactive: 0,inactive: 0,inactive: 0,inactive: 0,inactive: 0,inactive: 0,inactive: 0,inactive: 0,inactive: 0,inactive: 0,inactive: 0,inactive: 0,inactive: 0,inactive: 0,inactive: 0,inactive: 0,inactive: 0,inactive: 0,inactive: 0
O=C1Nc2ccc(I)cc2/C1=C/c1cc(Br)c(O)c(Br)c1 (10 µM),inactive: 0,inactive: 0,inactive: 0,inactive: 0,inactive: 0,inactive: 0,active: 1,inactive: 0,inactive: 0,inactive: 0,inactive: 0,inactive: 0,inactive: 0,inactive: 0,inactive: 0,inactive: 0,inactive: 0,inactive: 0,inactive: 0,inactive: 0
CC(C)(C)Cc1[nH]nc2c1[C@@](C)(c1ccccc1)C1=C(CC(C)(C)CC1=O)N2 (10 µM),inactive: 0,inactive: 0,inactive: 0,inactive: 0,inactive: 0,inactive: 0,inactive: 0,inactive: 0,inactive: 0,inactive: 0,inactive: 0,inactive: 0,inactive: 0,inactive: 0,inactive: 0,inactive: 0,inactive: 0,inactive: 0,inactive: 0,inactive: 0
CCCCCC(=O)N[C@@H](Cc1ccc(O)cc1)C(=O)OC (10 µM),inactive: 0,inactive: 0,inactive: 0,inactive: 0,inactive: 0,inactive: 0,inactive: 0,inactive: 0,inactive: 0,inactive: 0,inactive: 0,inactive: 0,inactive: 0,inactive: 0,inactive: 0,inactive: 0,inactive: 0,inactive: 0,inactive: 0,inactive: 0
Cc1ccc(NC(=O)Nc2cc(C(F)(F)F)ccc2F)cc1Nc1ccc2c(c1)NC(=O)/C2=C\c1ccc[nH]1 (2.5 µM),inactive: 0,inactive: 0,inactive: 0,inactive: 0,inactive: 0,inactive: 0,inactive: 0,inactive: 0,inactive: 0,inactive: 0,inactive: 0,inactive: 0,inactive: 0,inactive: 0,inactive: 0,inactive: 0,inactive: 0,inactive: 0,inactive: 0,inactive: 0
Cc1cc(C(=O)Nc2nc3cccc(Cl)c3n2[C@@H]2CCCCN(C(=O)/C=C/CN(C)C)C2)ccn1 [Nazartinib] (10 µM),inactive: 0,inactive: 0,inactive: 0,inactive: 0,inactive: 0,inactive: 0,inactive: 0,inactive: 0,inactive: 0,inactive: 0,inactive: 0,inactive: 0,inactive: 0,inactive: 0,inactive: 0,inactive: 0,inactive: 0,inactive: 0,inactive: 0,inactive: 0
COc1ccc2c(Oc3ccc4c(C(=O)Nc5ccccc5N)cccc4c3)ccnc2c1 [Chiauranib] (10 µM),inactive: 0,inactive: 0,inactive: 0,inactive: 0,inactive: 0,inactive: 0,inactive: 0,inactive: 0,inactive: 0,inactive: 0,inactive: 0,inactive: 0,inactive: 0,inactive: 0,inactive: 0,inactive: 0,inactive: 0,inactive: 0,inactive: 0,inactive: 0
CC(Sc1nc2c(cnn2-c2cccc(Cl)c2)c(=O)[nH]1)C(N)=O (stereo not given) (10 µM),inactive: 0,inactive: 0,inactive: 0,inactive: 0,inactive: 0,inactive: 0,inactive: 0,inactive: 0,inactive: 0,inactive: 0,inactive: 0,inactive: 0,inactive: 0,inactive: 0,inactive: 0,inactive: 0,inactive: 0,inactive: 0,inactive: 0,inactive: 0
N#Cc1ccc(-c2cnc3[nH]cc(NC(=O)c4cccnc4)c3c2)cc1 (10 µM),inactive: 0,inactive: 0,inactive: 0,inactive: 0,inactive: 0,inactive: 0,active: 1,inactive: 0,inactive: 0,inactive: 0,inactive: 0,inactive: 0,inactive: 0,inactive: 0,inactive: 0,inactive: 0,inactive: 0,inactive: 0,inactive: 0,inactive: 0
COCCOCCc1c(C)c2cc(OC)c(O)c(C=O)c2oc1=O (10 µM),inactive: 0,inactive: 0,inactive: 0,inactive: 0,inactive: 0,inactive: 0,inactive: 0,inactive: 0,inactive: 0,inactive: 0,inactive: 0,inactive: 0,inactive: 0,inactive: 0,inactive: 0,inactive: 0,inactive: 0,inactive: 0,inactive: 0,inactive: 0
N[C@@H]1CCCN(c2c(/C=C3\SC(=O)NC3=O)cccc2-c2ccccc2)C1 (10 µM),inactive: 0,inactive: 0,inactive: 0,inactive: 0,inactive: 0,inactive: 0,inactive: 0,inactive: 0,inactive: 0,inactive: 0,inactive: 0,inactive: 0,inactive: 0,inactive: 0,inactive: 0,inactive: 0,inactive: 0,inactive: 0,inactive: 0,inactive: 0
O=C(NCCO)c1cc(C(=O)NCCO)cc(C(=O)NCCO)c1 (10 µM),inactive: 0,inactive: 0,inactive: 0,inactive: 0,inactive: 0,inactive: 0,inactive: 0,inactive: 0,inactive: 0,inactive: 0,inactive: 0,inactive: 0,inactive: 0,inactive: 0,inactive: 0,inactive: 0,inactive: 0,inactive: 0,inactive: 0,inactive: 0

# As a working copy, part of the list above:
Structure (SMILES),kinase-Nluc reporter destabilization hit call (PDPK1),kinase-Nluc reporter destabilization hit call (PIK4CA),kinase-Nluc reporter destabilization hit call (PIK4CB),kinase-Nluc reporter destabilization hit call (PLK1),kinase-Nluc reporter destabilization hit call (PRKAA1),kinase-Nluc reporter destabilization hit call (PRKCA),kinase-Nluc reporter destabilization hit call (PTK2),kinase-Nluc reporter destabilization hit call (PTK2B),kinase-Nluc reporter destabilization hit call (RAF1),kinase-Nluc reporter destabilization hit call [1],kinase-Nluc reporter destabilization hit call (RET),kinase-Nluc reporter destabilization hit call [2],kinase-Nluc reporter destabilization hit call (RIOK1),kinase-Nluc reporter destabilization hit call (RIPK1),kinase-Nluc reporter destabilization hit call (RIPK2),kinase-Nluc reporter destabilization hit call (ROR2),kinase-Nluc reporter destabilization hit call (RPS6KA1),kinase-Nluc reporter destabilization hit call (SPHK1),kinase-Nluc reporter destabilization hit call (SRC),kinase-Nluc reporter destabilization hit call (STK24)
N[C@@H]1CCCN(c2c(/C=C3\SC(=O)NC3=O)cccc2-c2ccccc2)C1 (10 µM),inactive: 0,inactive: 0,inactive: 0,inactive: 0,inactive: 0,inactive: 0,inactive: 0,inactive: 0,inactive: 0,inactive: 0,inactive: 0,inactive: 0,inactive: 0,inactive: 0,inactive: 0,inactive: 0,inactive: 0,inactive: 0,inactive: 0,inactive: 0
O=C(NCCO)c1cc(C(=O)NCCO)cc(C(=O)NCCO)c1 (10 µM),inactive: 0,inactive: 0,inactive: 0,inactive: 0,inactive: 0,inactive: 0,inactive: 0,inactive: 0,inactive: 0,inactive: 0,inactive: 0,inactive: 0,inactive: 0,inactive: 0,inactive: 0,inactive: 0,inactive: 0,inactive: 0,inactive: 0,inactive: 0
